Test results published in patent US11766480B2, “Multivalent peptoid oligomers, pharmaceutical compositions and methods of using same” (NEW YORK UNIVERSITY, priority 2012, dated 2023).
At least one structure is not confirmed: it was looked up by name or label, or the drawing left a doubt.

System: LNCaP-abl cells
Assay: Cell proliferation assay (CyQUANT)
Type: cell-based, human
Conditions: 1 μM or 10 nM oligomer, Bicalutamide 1 μM; 72 hours (FIG. 3A, FIG. 6)

CC(O)(CS(=O)(=O)c1ccc(F)cc1)C(=O)Nc1ccc(C#N)c(C(F)(F)F)c1 (stereo not shown) [bicalutamide, reference compound]
proliferation of LNCaP-abl cells relative to vehicle: no effect on cell proliferation
